The source of these data is paper PMC11078644, “Nesprin-2 is a novel scaffold protein for telethonin and FHL-2 in the cardiomyocyte sarcomere” (The Journal of Biological Chemistry, 2024).

One assay deals with T1, GFP-tagged FHL-2 WT (UniProt Q14192).
T1 sequence: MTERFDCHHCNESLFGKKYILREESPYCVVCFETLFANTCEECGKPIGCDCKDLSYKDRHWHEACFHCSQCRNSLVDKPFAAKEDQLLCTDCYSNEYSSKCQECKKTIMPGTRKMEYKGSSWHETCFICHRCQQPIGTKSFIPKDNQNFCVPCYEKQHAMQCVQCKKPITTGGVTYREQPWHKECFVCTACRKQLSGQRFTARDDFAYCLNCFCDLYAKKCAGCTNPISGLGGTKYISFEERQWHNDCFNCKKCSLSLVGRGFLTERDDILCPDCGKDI
Put plainly: co-IP; Flag-tagged nesprin-2 SR51-53 and GFP-FHL-2 overexpressed in C2C12 myoblasts; IP with GFP antibody; blot with Flag and Nes-2N3 antibodies.

Assay [1] concerns the target T2, GST-nesprin-2 SR51-53 (amino acids 6018-6354) (human) (UniProt Q8WXH0).
T2 sequence: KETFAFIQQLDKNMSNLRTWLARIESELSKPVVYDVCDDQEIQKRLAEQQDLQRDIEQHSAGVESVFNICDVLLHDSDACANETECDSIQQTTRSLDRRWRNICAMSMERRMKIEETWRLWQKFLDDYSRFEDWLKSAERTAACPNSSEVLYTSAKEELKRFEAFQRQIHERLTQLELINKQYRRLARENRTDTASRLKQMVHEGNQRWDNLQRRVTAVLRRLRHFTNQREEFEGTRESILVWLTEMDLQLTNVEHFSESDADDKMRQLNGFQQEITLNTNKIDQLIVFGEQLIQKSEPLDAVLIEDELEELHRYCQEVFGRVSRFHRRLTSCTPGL
Kind of assay: pull-down; GST-nesprin-2 beads incubated with GFP-tagged FHL-2 proteins; Western blot. A general note: Immunoblotting shows a protein as a band on a membrane.

Results are given in words; binding and its absence hold for the method and conditions named. In cells and extracts the contact can be indirect. Binding can be weak; no strength is given. Tags and fused reporters may be left off the sequences shown.

Consider “FLAG-tagged nesprin-2 SR51-53 (human) (domain or fragment)”, for which, in the assay with GFP-tagged FHL-2 WT, the binding entry is “binds”.

For the substance “GFP-tagged FHL-2 LIM-2 domain (domain or fragment)”, the binding result in assay [1] was “binds”.
